Data as given in patent US20170260247 (published 2017).

Experiment: general procedure: Fmoc solid-phase peptide synthesis; MBHA resin (substitution about 0.6 mmol/g); DIC/HOBt
Conditions: whole synthesis, acetate; for crude purity (method not given) / final HPLC purity: HPLC (analysing the liquid phase); for crude purity (method not given) / final HPLC purity / isolated yield: scale of the general procedure 0.05 mol; for isolated yield: total yield

For “Ac-D-Nal-D-Cpa-D-Pal-Ser-Aph(Hor)-D-Aph(Cbm)-Leu-Lys(iPr)-Pro-D-Ala-NH2”, the “crude purity (method not given)” value (run 1) was 86.7%, the “final HPLC purity” value (run 1) was 99.5% and the “crude purity (method not given)” value (run 2) was 84.0%. The “final HPLC purity” value (run 2) was 99.7%, the isolated mass (run 1) was 49.3 g and the isolated mass (run 2) was 47.5 g. For the same substance, the isolated yield (run 1) was 60.4% and the isolated yield (run 2) was 58.2%.
